# Reference: patent publication US20220074941A1, “HSP90 COMBINATION THERAPY” (Sloan-Kettering Institute for Cancer Research, priority 2011, published 2022)
# Key:
# [1] = test system: Hsp90 complexes in K562 cell extract; assay: Nano-LC-MS/MS of PU-beads pull-downs; assay type: binding; conditions: protein identified in PU-beads pull-down of K562 extract, QSTAR-Elite QTof MS
# How it was run: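 Lysates pre-cleared overnight at 4 °C with control beads, then pulled down with PU-beads or control beads; eluted proteins (2% SDS boil) gel-separated and analysed by nano LC-MS/MS on a QTof. Mascot identification (p<0.05), spectral counts and sequence coverage evaluated in Scaffold.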
# [2] = test system: Hsp90 complexes in Mia-PaCa-2 cell extract; assay: Nano-LC-MS/MS of PU-beads pull-downs; assay type: binding, human; conditions: protein identified in PU-beads pull-down of Mia-Paca 2 extract; QSTAR-Elite QTof MS
# Experimental: Lysates prepared as mentioned above were first pre-cleaned by incubation with control beads overnight at 4° C. […] Beads were washed with lysis buffer, proteins eluted by boiling in 2% SDS, separated on a denaturing gel and Coomassie stained according to manufacturer's procedure (Biorad). […] Analyses of the batch purified pools were done using a QSTAR-Elite hybrid quadrupole time-of-flight mass spectrometer (QTof MS) (AB/MDS Sciex), equipped with a nano spray ion source. Peptide mixtures (in 20 μL) are loaded onto a trapping guard column (0.3×5-mm PepMap C18 100 cartridge from LC Packings) using an Eksigent nano MDLC system (Eksigent Technologies, Inc) at a flow rate of 20 μL/min. […] Electrospray ionization (ESI) needle voltage was set at about 1800 V. The mass analyzer is operated in automatic, data-dependent MS/MS acquisition mode, with the threshold set to 10 counts per second of doubly or triply charged precursor ions selected for fragmentation scans. Survey scans of 0.25 sec are recorded from 400 to 1800 amu; up to 3 MS/MS scans are then collected sequentially for the selected precursor ions, recording from 100 to 1800 amu. The collision energy is automatically adjusted in accordance with the m/z value of the precursor ions selected for MS/MS. Selected precursor ions are excluded from repeated selection for 60 sec after the end of the corresponding fragmentation duty cycle. […] One missed tryptic cleavage site was allowed, precursor ion mass tolerance=0.4 Da fragment ion mass tolerance=0.4 Da, protein modifications were allowed for Met-oxide, Cys-acrylamide and N-terminal acetylation. MudPit scoring was typically applied with ‘require bold red’ activated, and using significance threshold score p<0.05. Unique peptide counts (or ‘spectral counts’) and percent sequence coverages for all identified proteins were exported to Scaffold Proteome Software (version 2_06_01, www.proteomesoftware.com) for further bioinformatic analysis (Table 5a). Using output from Mascot, Scaffold validates, organizes, and interprets mass spectrometry data, allowing more easily to manage large amounts of data, to compare samples, and to search for protein modifications.
Molecule,"Number of Assigned Spectra, K562 Prep 1 [1]","Number of Assigned Spectra, K562 Prep 2 [1]","Number of Assigned Spectra, Mia-Paca 2 [2]"
"CSNK1A1 (protein, UniProt P48729 2-337, looked up) Casein kinase I isoform alpha: ASSSGSKAEFIVGGKYKLVRKIGSGSFGDIYLAINITNGEEVAVKLESQKARHPQLLYESKLYKILQGGVGIPHIRWYGQEKDYNVLVMDLLGPSLEDLFNFCSRRFTMKTVLMLADQMISRIEYVHTKNFIHRDIKPDNFLMGIGRHCNKLFLIDFGLAKKYRDNRTRQHIPYREDKNLTGTARYASINAHLGIEQSRRDDMESLGYVLMYFNRTSLPWQGLKAATKKQKYEKISEKKMSTPVEVLCKGFPAEFAMYLNYCRGLRFEEAPDYMYLRQLFRILFRTLNHQYDYTFDWTMLKQKAAQQAASSSGQGQQAQTPTGKQTDKTKSNMKGF",5,0,1
"KSR1 (protein, UniProt Q8IVT5 1-923, looked up) Kinase suppressor of Ras 1: MDRAALRAAAMGEKKEGGGGGDAAAAEGGAGAAASRALQQCGQLQKLIDISIGSLRGLRTKCAVSNDLTQQEIRTLEAKLVRYICKQRQCKLSVAPGERTPELNSYPRFSDWLYTFNVRPEVVQEIPRDLTLDALLEMNEAKVKETLRRCGASGDECGRLQYALTCLRKVTGLGGEHKEDSSWSSLDARRESGSGPSTDTLSAASLPWPPGSSQLGRAGNSAQGPRSISVSALPASDSPTPSFSEGLSDTCIPLHASGRLTPRALHSFITPPTTPQLRRHTKLKPPRTPPPPSRKVFQLLPSFPTLTRSKSHESQLGNRIDDVSSMRFDLSHGSPQMVRRDIGLSVTHRFSTKSWLSQVCHVCQKSMIFGVKCKHCRLKCHNKCTKEAPACRISFLPLTRLRRTESVPSDINNPVDRAAEPHFGTLPKALTKKEHPPAMNHLDSSSNPSSTTSSTPSSPAPFPTSSNPSSATTPPNPSPGQRDSRFNFPAAYFIHHRQQFIFPVPSAGHCWKCLLIAESLKENAFNISAFAHAAPLPEAADGTRLDDQPKADVLEAHEAEAEEPEAGKSEAEDDEDEVDDLPSSRRPWRGPISRKASQTSVYLQEWDIPFEQVELGEPIGQGRWGRVHRGRWHGEVAIRLLEMDGHNQDHLKLFKKEVMNYRQTRHENVVLFMGACMNPPHLAIITSFCKGRTLHSFVRDPKTSLDINKTRQIAQEIIKGMGYLHAKGIVHKDLKSKNVFYDNGKVVITDFGLFGISGVVREGRRENQLKLSHDWLCYLAPEIVREMTPGKDEDQLPFSKAADVYAFGTVWYELQARDWPLKNQAAEASIWQIGSGEGMKRVLTSVSLGKEVSEILSACWAFDLQERPSFSLLMDMLEKLPKLNRRLSHPGHFWKSADINSSKVVPRFERFGLGVLESSNPKM",3,0,0
"BMP2K (protein, UniProt Q9NSY1 1-1161, looked up) BMP-2-inducible protein kinase: MKKFSRMPKSEGGSGGGAAGGGAGGAGAGAGCGSGGSSVGVRVFAVGRHQVTLEESLAEGGFSTVFLVRTHGGIRCALKRMYVNNMPDLNVCKREITIMKELSGHKNIVGYLDCAVNSISDNVWEVLILMEYCRAGQVVNQMNKKLQTGFTEPEVLQIFCDTCEAVARLHQCKTPIIHRDLKVENILLNDGGNYVLCDFGSATNKFLNPQKDGVNVVEEEIKKYTTLSYRAPEMINLYGGKPITTKADIWALGCLLYKLCFFTLPFGESQVAICDGNFTIPDNSRYSRNIHCLIRFMLEPDPEHRPDIFQVSYFAFKFAKKDCPVSNINNSSIPSALPEPMTASEAAARKSQIKARITDTIGPTETSIAPRQRPKANSATTATPSVLTIQSSATPVKVLAPGEFGNHRPKGALRPGNGPEILLGQGPPQQPPQQHRVLQQLQQGDWRLQQLHLQHRHPHQQQQQQQQQQQQQQQQQQQQQQQQQQQHHHHHHHHLLQDAYMQQYQHATQQQQMLQQQFLMHSVYQPQPSASQYPTMMPQYQQAFFQQQMLAQHQPSQQQASPEYLTSPQEFSPALVSYTSSLPAQVGTIMDSSYSANRSVADKEAIANFTNQKNISNPPDMSGWNPFGEDNFSKLTEEELLDREFDLLRSNRLEERASSDKNVDSLSAPHNHPPEDPFGSVPFISHSGSPEKKAEHSSINQENGTANPIKNGKTSPASKDQRTGKKTSVQGQVQKGNDESESDFESDPPSPKSSEEEEQDDEEVLQGEQGDFNDDDTEPENLGHRPLLMDSEDEEEEEKHSSDSDYEQAKAKYSDMSSVYRDRSGSGPTQDLNTILLTSAQLSSDVAVETPKQEFDVFGAVPFFAVRAQQPQQEKNEKNLPQHRFPAAGLEQEEFDVFTKAPFSKKVNVQECHAVGPEAHTIPGYPKSVDVFGSTPFQPFLTSTSKSESNEDLFGLVPFDEITGSQQQKVKQRSLQKLSSRQRRTKQDMSKSNGKRHHGTPTSTKKTLKPTYRTPERARRHKKVGRRDSQSSNEFLTISDSKENISVALTDGKDRGNVLQPEESLLDPFGAKPFHSPDLSWHPPHQGLSDIRADHNTVLPGRPRQNSLHGSFHSADVLKMDDFGAVPFTELVVQSITPHQSQQSQPVELDPFGAAPFPSKQ",4,3,0
"SRPK1 (protein, UniProt Q96SB4 1-655, looked up) SRSF protein kinase 1: MERKVLALQARKKRTKAKKDKAQRKSETQHRGSAPHSESDLPEQEEEILGSDDDEQEDPNDYCKGGYHLVKIGDLFNGRYHVIRKLGWGHFSTVWLSWDIQGKKFVAMKVVKSAEHYTETALDEIRLLKSVRNSDPNDPNREMVVQLLDDFKISGVNGTHICMVFEVLGHHLLKWIIKSNYQGLPLPCVKKIIQQVLQGLDYLHTKCRIIHTDIKPENILLSVNEQYIRRLAAEATEWQRSGAPPPSGSAVSTAPQPKPADKMSKNKKKKLKKKQKRQAELLEKRMQEIEEMEKESGPGQKRPNKQEESESPVERPLKENPPNKMTQEKLEESSTIGQDQTLMERDTEGGAAEINCNGVIEVINYTQNSNNETLRHKEDLHNANDCDVQNLNQESSFLSSQNGDSSTSQETDSCTPITSEVSDTMVCQSSSTVGQSFSEQHISQLQESIRAEIPCEDEQEQEHNGPLDNKGKSTAGNFLVNPLEPKNAEKLKVKIADLGNACWVHKHFTEDIQTRQYRSLEVLIGSGYNTPADIWSTACMAFELATGDYLFEPHSGEEYTRDEDHIALIIELLGKVPRKLIVAGKYSKEFFTKKGDLKHITKLKPWGLFEVLVEKYEWSQEEAAGFTDFLLPMLELIPEKRATAAECLRHPWLNS",11,2,7
"SRPK2 (protein, UniProt P78362 1-688, looked up) SRSF protein kinase 2: MSVNSEKSSSSERPEPQQKAPLVPPPPPPPPPPPPPLPDPTPPEPEEEILGSDDEEQEDPADYCKGGYHPVKIGDLFNGRYHVIRKLGWGHFSTVWLCWDMQGKRFVAMKVVKSAQHYTETALDEIKLLKCVRESDPSDPNKDMVVQLIDDFKISGMNGIHVCMVFEVLGHHLLKWIIKSNYQGLPVRCVKSIIRQVLQGLDYLHSKCKIIHTDIKPENILMCVDDAYVRRMAAEATEWQKAGAPPPSGSAVSTAPQQKPIGKISKNKKKKLKKKQKRQAELLEKRLQEIEELEREAERKIIEENITSAAPSNDQDGEYCPEVKLKTTGLEEAAEAETAKDNGEAEDQEEKEDAEKENIEKDEDDVDQELANIDPTWIESPKTNGHIENGPFSLEQQLDDEDDDEEDCPNPEEYNLDEPNAESDYTYSSSYEQFNGELPNGRHKIPESQFPEFSTSLFSGSLEPVACGSVLSEGSPLTEQEESSPSHDRSRTVSASSTGDLPKAKTRAADLLVNPLDPRNADKIRVKIADLGNACWVHKHFTEDIQTRQYRSIEVLIGAGYSTPADIWSTACMAFELATGDYLFEPHSGEDYSRDEDHIAHIIELLGSIPRHFALSGKYSREFFNRRGELRHITKLKPWSLFDVLVEKYGWPHEDAAQFTDFLIPMLEMVPEKRASAGECLRHPWLNS",1,1,0
